The results in this text go back to the supplement of paper PMC10398353.

Values joined by “and” are separate entries in the source; they are usually repeats but may differ in a detail not shown here. Identical values can stand only once. Counter-ions that a name gives are not always drawn. ± gives the standard deviation of the averaged measurements. This is one part of the list. The data scatter; read single values as rough.

The experiment has as its system Salmonella enterica serovar Typhimurium ST313 D23580. Kind of experiment: normalized bacterial growth (OD600 20 h minus 0 h, interquartile-mean normalized) (fraction of plate interquartile mean); higher = more bacterial growth (less inhibition). Conditions: LPM (pH 5.8, low phosphate, low Mg2+), concentration: 10 µM, temperature: 37 °C.
Regarding `CC1=C(/C=C/C(C)=C/C=C/C(C)=C\C(=O)O)C(C)(C)CCC1`, the normalized bacterial growth is 0.897. In the case of `CC/C(=C(/CC)c1ccc(O)cc1)c1ccc(O)cc1` it was 1.29. The result for `CC(C)(Sc1ccc(CCN(CCCCC2CCCCC2)C(=O)NC2CCCCC2)cc1)C(=O)O` reads 1.24; that for `NC1C=CC=C(C(=O)O)C1` (centres undefined) [Gabaculine hydrochloride], 0.986. The result for `CSc1ccc2c(c1)N(CCC1CCCCN1C)c1ccccc1S2` (centres undefined) [Thioridazine hydrochloride] reads 1.15; that for `NC(N)=Nc1nc(CSCC/C(N)=N/S(N)(=O)=O)cs1` [Famotidine], 1.03 ± 0.065.

On to `NC(N)=Nc1nc(CSCC/C(N)=N/S(N)(=O)=O)cs1`, for which the normalized bacterial growth was determined as 0.617. In the case of `Cc1cc(-c2ccccc2)nnc1NCCN1CCOCC1` it was 1; in that of `COc1ccc(-c2cc(=O)c3c(OC(C)=O)cc(OC(C)=O)cc3o2)cc1`, 1.21; in that of `O=c1cc(-c2ccc(O)cc2)oc2c([C@@H]3O[C@H](CO)[C@@H](O)[C@H](O)[C@H]3O)c(O)cc(O)c12`, 1.11. The result for `O=c1cc(-c2ccc(O)cc2)oc2c([C@@H]3O[C@H](CO)[C@@H](O)[C@H](O)[C@H]3O)c(O)cc(O)c12` [Vitexin] reads 1.2. `CC[N+](CC)(CC)CC(=O)Nc1c(C)cccc1C` [Lidocaine N-ethyl bromide quaternary salt]: the normalized bacterial growth was 0.752. On to `COc1cc(-c2ccc(=O)[nH]n2)ccc1OC(F)F` [Zardaverine], for which the normalized bacterial growth was 0.917. In turn, `COC(=O)[C@@H]1OC(=O)[C@H]2O[C@@]23[C@@]1(C)CCC1[C@@]2(C)CCC(=O)C(C)(C)C2C[C@@H](OC(C)=O)[C@]13C` (some centres undefined) yielded a normalized bacterial growth of 0.992.

As for `CCCCC1(COC(=O)CCC(=O)O)C(=O)N(c2ccccc2)N(c2ccccc2)C1=O`, the normalized bacterial growth is 0.919. In the case of `COc1cc(NC(C)CCCN)c2ncccc2c1` (centres undefined) it was 0.763; in that of `COC1=C(N)C(=O)c2nc(-c3nc(C(=O)O)c(C)c(-c4ccc(OC)c(OC)c4O)c3N)ccc2C1=O`, 0.0182. The result for `CCCCNc1c(C(=O)OCC)c(C)nc2c1cnn2CC` [Tracazolate] reads 0.773. In turn, `CCCCNc1c(C(=O)OCC)c(C)nc2c1cnn2CC` [Tracazolate hydrochloride] came in with a normalized bacterial growth of 0.825. In the case of `C[C@H]1O[C@@H](Oc2c(-c3cc(O)c(O)c(O)c3)oc3cc(O)cc(O)c3c2=O)[C@@H](O)[C@@H](O)[C@@H]1O` it was 1.1; in that of `CC[C@@H](C(=O)[C@@H](C)[C@@H](O)[C@H](C)CCc1ccc(C)c(O)c1C(=O)O)[C@H]1O[C@](CC)([C@H]2CC[C@](O)(CC)[C@H](C)O2)C[C@@H]1C` [Lasalocid sodium salt], 1.06. In the case of `CC[C@@H](C(=O)[C@@H](C)[C@@H](O)[C@H](C)CCc1ccc(C)c(O)c1C(=O)O)[C@H]1O[C@](CC)([C@H]2CC[C@](O)(CC)[C@H](C)O2)C[C@@H]1C` it was 1.13 and 0.965.

Consider `CC12CCCC(O)(C1)C1CC(C)(C)C1CC2` (stereo not drawn) [beta-CARYOPHYLLENE ALCOHOL], for which the normalized bacterial growth came out at 1.16. The compound `CC(C)(C)c1ccc(C(O)CCCN2CCC(C(O)(c3ccccc3)c3ccccc3)CC2)cc1` (centres undefined) [Terfenadine] had a normalized bacterial growth of 1.05.

Regarding `Cc1cc(=O)oc2c(O)c(O)ccc12`, the normalized bacterial growth was 0.79.

As to `CC(COc1ccccc1)NC(C)C(O)c1ccc(O)cc1` (centres undefined) [Isoxsuprine hydrochloride], the normalized bacterial growth stood at 0.941. For `CC(COc1ccccc1)NC(C)C(O)c1ccc(O)cc1` (centres undefined), the normalized bacterial growth worked out at 1.13. In turn, `CC1(C)[C@@H](O)CC[C@]2(C)[C@H]3C(=O)C=C4[C@H]5C[C@@](C)(C(=O)O)CC[C@]5(C)CC[C@@]4(C)[C@]3(C)CC[C@@H]12` [18alpha-GLYCYRRHETINIC ACID] displayed a normalized bacterial growth of 1.19. In the case of `CCCCN1CCCCC1C(=O)Nc1c(C)cccc1C` (centres undefined) it was 0.962; in that of `CCOC(=O)NNc1nncc2ccccc12`, 1.23. The result for `CC(=O)c1c(O)cc(O)cc1O` reads 0.99; that for `CC(=O)O[C@@H]1CC2C(C)(CC[C@H](O)C2(C)C)C2CC[C@]3(C)C(=CC(=O)O[C@H]3c3ccoc3)C21C` (stereo partly drawn) [3beta-HYDROXYDEOXODIHYDRODEOXYGEDUNIN], 0.918.

Take `CCN(CCO)CCCC(C)Nc1ccnc2cc(Cl)ccc12` (centres undefined): the normalized bacterial growth was found to be 0.949.

As to `CON`, the normalized bacterial growth was 1.11. In turn, `CC(C)c1ccc2c(c1)c(SC(C)(C)C)c(CC(C)(C)C(=O)O)n2Cc1ccc(Cl)cc1` displayed a normalized bacterial growth of 0.831.

Take `O=c1ccn([C@@H]2O[C@H](COP(=O)(O)OP(=O)(O)OP(=O)(O)O)[C@@H](O)[C@H]2O)c(=O)[nH]1`: the normalized bacterial growth was found to be 1.16. The result for `CN(C)c1ccc(C(=C2C=CC(=[N+](C)C)C=C2)c2ccc(N(C)C)cc2)cc1` reads 1.37. In the case of `COc1ccc(CC2c3cc(OC)c(OC)cc3CC[N+]2(C)CCC(=O)OCCCCCOC(=O)CC[N+]2(C)CCc3cc(OC)c(OC)cc3C2Cc2ccc(OC)c(OC)c2)cc1OC` (centres undefined) [Atracurium besylate] it was 0.713; in that of `CC(=O)[C@H]1CC[C@H]2[C@@H]3CC=C4C[C@@H](O)CC[C@]4(C)[C@H]3CC[C@]12C` [Pregnenolone], 0.806.

Compound `CC(=O)[C@H]1CC[C@H]2[C@@H]3CC=C4C[C@@H](O)CC[C@]4(C)[C@H]3CC[C@]12C` yielded a normalized bacterial growth of 0.846. In the case of `O=c1ccc2ccccc2o1` it was 1.13. The result for `NCCOB(c1ccccc1)c1ccccc1` reads 0.589; that for `CC1(C)C=Cc2cc3ccc(=O)oc3cc2O1`, 0.693. In the case of `CCOC(=O)c1c(C)cc(O)cc1O` it was 1.07; in that of `CN(C)CCCN1c2ccccc2Sc2ccc(Cl)cc21` [Chlorpromazine hydrochloride], 0.66.

Regarding `CN(C)CCCN1c2ccccc2Sc2ccc(Cl)cc21`, the normalized bacterial growth turned out to be 0.758. In the case of `CCCC1(C)C(C#N)(C#N)C1(C#N)C#N` it was 0.967; in that of `CC1(C)C2CCC1(C(=O)O)C(=O)C2` (centres undefined), 1.15. The result for `O=c1[nH]cnc2c1ncn2[C@@H]1O[C@H](CO)[C@@H](O)[C@H]1O` reads 0.824; that for `CCCCOc1cc(CC2CNC(=O)N2)ccc1OC` (centres undefined), 1.12. The result for `CC(C)Cn1c(=O)n(C)c(=O)c2[nH]cnc21` reads 1.02; that for `CC(C)Cn1c(=O)n(C)c(=O)c2[nH]cnc21` [3-Isobutyl-1-methylxanthine], 0.959; that for `Cc1n[nH]c(=O)[nH]c1=O` ["Azathymine, 6"], 1.18. As for `COc1cc([C@@H]2c3cc4c(cc3[C@@H](O[C@@H]3O[C@@H]5CO[C@@H](c6cccs6)O[C@H]5[C@H](O)[C@H]3O)[C@H]3COC(=O)[C@H]23)OCO4)cc(OC)c1O`, the normalized bacterial growth amounted to 0.92.

As to `CC(=O)N[C@@H](C=O)[C@@H](O)[C@H](O)[C@H](O)CO`, the normalized bacterial growth amounted to 1.1. In the case of `N[C@@H](Cc1ccc(O)c(I)c1)C(=O)O` [3-Iodo-L-tyrosine] it was 1.45; in that of `Nc1ccc(S(=O)(=O)Nc2ccccn2)cc1`, 1.3; in that of `CO[C@H]1C[C@H](O[C@H]2[C@H](C)[C@@H](O[C@@H]3O[C@H](C)C[C@H](N(C)C)[C@H]3O)[C@@H](C)C[C@@]3(CO3)C(=O)[C@H](C)[C@@H](O)[C@@H](C)[C@@H](C)OC(=O)[C@@H]2C)O[C@@H](C)[C@@H]1O` [Oleandomycin phosphate], 0.995. In the case of `CO[C@H]1C[C@H](O[C@H]2[C@H](C)[C@@H](O[C@@H]3O[C@H](C)C[C@H](N(C)C)[C@H]3O)[C@@H](C)C[C@@]3(CO3)C(=O)[C@H](C)[C@@H](O)[C@@H](C)[C@@H](C)OC(=O)[C@@H]2C)O[C@@H](C)[C@@H]1O` it was 0.713; in that of `Nc1ncnc2c1ncn2C1CCCO1` (centres undefined), 0.994; in that of `Nc1ccn([C@@H]2O[C@H](CO)[C@@H](O)[C@@H]2O)c(=O)n1`, 1.12. `Nc1ccn([C@@H]2O[C@H](CO)[C@@H](O)[C@@H]2O)c(=O)n1` [Cytosine-1-beta-D-arabinofuranoside hydrochloride]: the normalized bacterial growth was determined as 0.803. The result for `OC[C@H]1O[C@H](OCC2O[C@@H](O)[C@H](O)[C@@H](O)[C@@H]2O)[C@H](O)[C@@H](O)[C@H]1O` (some centres undefined) reads 1.12; that for `O=C(NCCO)c1ccc2c(c1)nc(Nc1cccc(Cl)c1)c1ccncc12` [CK2 Inhibitor 2], 0.948; that for `COc1ccnc(C[S+]([O-])c2nc3cc(OC(F)F)ccc3[nH]2)c1OC` (centres undefined), 0.885. In the case of `O=C(O)[C@H](O)[C@@](O)(Cc1ccc(O)cc1)C(=O)O` it was 0.79; in that of `N[C@H](C(=O)O)[C@H]1C[C@@H]1C(=O)O` ["(2S,1'S,2'S)-2-(carboxycyclopropyl)glycine"], 1.01.

In the case of `COC(=O)C(N)Cc1ccc(Cl)cc1` (racemic) [DL-p-Chlorophenylalanine methyl ester hydrochloride], the normalized bacterial growth stood at 1.11. The result for `O=c1c(O)c(-c2ccc(O)c(O)c2)oc2cc(O)cc(O)c12` reads 1.03.

The compound `O=c1c(O)c(-c2ccc(O)c(O)c2)oc2cc(O)cc(O)c12` [Quercetine dihydrate] displayed a normalized bacterial growth of 0.941. In the case of `O=C(O)C1(C(=O)O)CCC1.[NH2-].[NH2-].[Pt+2]` [Carboplatin] it was 0.789; in that of `O=C(O)C1(C(=O)O)CCC1.[NH2-].[NH2-].[Pt+2]`, 1.16. The result for `CC(C)Cc1ccc(C(C)C(=O)O)cc1` (centres undefined) [()-Ibuprofen] reads 1.16. The result for `COC1=CC(=O)C=C(OC)C1=O` reads 0.681; that for `COc1ccc(C(=O)c2ccccc2O)c(O)c1`, 0.953; that for `COCCc1ccc(OCC(O)CNC(C)C)cc1` (centres undefined), 0.588. For the compound `COCCc1ccc(OCC(O)CNC(C)C)cc1` (stereo not drawn) [()-Metoprolol (+)-tartrate], the normalized bacterial growth was 1. In the case of `CCOc1ccc(NC(C)=O)cc1` it was 1.05; in that of `CN1CCC[C@@H]1CCO[C@](C)(c1ccccc1)c1ccc(Cl)cc1`, 1. In the case of `CN1CCC[C@@H]1CCO[C@](C)(c1ccccc1)c1ccc(Cl)cc1` [Clemastine fumarate] it was 0.851.

For the compound `O=C(c1ccc(OCCCc2c[nH]cn2)cc1)C1CC1` [Ciproxifan hydrochloride], the normalized bacterial growth was 0.478. The result for `CC(C(=O)O)c1ccc(C(=O)c2cccs2)cc1` (centres undefined) [Suprofen] reads 1.11; that for `CCCCC[C@H](O)/C=C/[C@H]1[C@H](O)CC(=O)[C@@H]1CCCCCCC(=O)O`, 1.06; that for `O=C(O)c1cccnc1C(=O)O` [Quinolinic acid], 1.04.
